Holding throughout (assay): Cytotoxic activity, alamarBlue assay, 72 h
Assay type in all cases: cell-based
For orientation: Alamar Blue is a resazurin reagent that responds to reducing activity.

The subject of data set [1] is HCT116 (human colon carcinoma). The text has this: (§1) MCF7 (human breast carcinoma), HCT116 (human colon carcinoma), HepG2 (human hepatocellular carcinoma), SCC-9 (human oral squamous cell carcinoma), HSC-3 (human oral squamous cell carcinoma), HL-60 (human promyelocytic leukemia), K-562 (human chronic myelogenous leukemia), B16-F10 (murine melanoma), MRC-5 (human lung fibroblast), WT SV40 MEF (wild-type immortalized mouse embryonic fibroblast), and BAD KO SV40 MEF (BAD gene knockout immortalized mouse embryonic fibroblast) cell lines were obtained from the American Type Culture Collection (ATCC, Manassas, VA, USA). Cells were cultured in complete medium with appropriate supplements as recommended by ATCC. All cell lines were tested for mycoplasma using the Mycoplasma Stain Kit (Sigma-Aldrich) to validate the use of cells free from contamination. Primary cell culture of peripheral blood mononuclear cells (PBMC) was obtained by standard Ficoll density protocol. The Research Ethics Committee of the Oswaldo Cruz Foundation (Salvador, BA, Brazil) approved the experimental protocol (number 031019/2013). Cell viability was examined using trypan blue exclusion assay for all experiments.
(§2) Cell viability was quantified using the alamarBlue assay according to Ahmed et al.. Cells were inserted in 96-well plates for all experiments (7 × 10^4 cells/mL for adherent cells or 3 × 10^5 cells/mL for suspended cells in 100 μL of medium). After 24 h, xylopine was dissolved in dimethyl sulfoxide (DMSO) and added to each well and incubated for 72 h. […] Four (for cell lines) or 24 h (for PBMCs) before the end of incubation, 20 μL of a stock solution (0.312 mg/mL) of the alamarBlue (resazurin, Sigma-Aldrich Co., Saint Louis, MO, USA) was added to each well. Absorbance at 570 nm and 600 nm was measured using the SpectraMax 190 Microplate Reader (Molecular Devices, Sunnyvale, CA, USA), and the drug effect was quantified as the percentage of control absorbance.

The subject of data set [2] is MCF7 (human breast carcinoma).
Excerpt: as §1, §2

The test system of data set [3] is HepG2 (human hepatocellular carcinoma).
Excerpt: as §1, §2

For data set [4], the system named is K562 (human chronic myelogenous leukemia).
Excerpt: as §1, §2

The subject of data set [5] is HL-60 (human promyelocytic leukemia).
Excerpt: as §1, §2

Data set [6] deals with B16-F10 (murine melanoma).
Excerpt: as §1, §2

The test system of data set [7] is HSC3 (human oral squamous cell carcinoma).
Excerpt: as §1, §2

These results are taken from publication PMC5736936, “Xylopine Induces Oxidative Stress and Causes G2/M Phase Arrest, Triggering Caspase-Mediated Apoptosis by p53-Independent Pathway in HCT116 Cells” (Oxidative Medicine and Cellular Longevity, 2017).

With `O=C1[O][Pt]2([NH][C@@H]3CCCC[C@H]3[NH]2)[O]C1=O` [OXA, oxaliplatin], the Selectivity index in data set [1] (IC50(MRC5)/IC50(HCT116)) came to 0.4; in data set [1] (IC50(PBMC)/IC50(HCT116)) it was 3.6; in data set [2] (IC50(MRC5)/IC50(MCF7)) it was 0.3; in data set [2] (IC50(PBMC)/IC50(MCF7)), 2.5; in data set [3] (IC50(MRC5)/IC50(HepG2)), 1.5; in data set [3] (IC50(PBMC)/IC50(HepG2)), 14.9. The Selectivity index was determined as 1.7 in data set [4] (IC50(MRC5)/IC50(K-562)); 16.6 in data set [4] (IC50(PBMC)/IC50(K-562)); 3.8 in data set [5] (IC50(MRC5)/IC50(HL-60)); 37.3 in data set [5] (IC50(PBMC)/IC50(HL-60)); 15 in data set [6] (IC50(MRC5)/IC50(B16-F10)); 149 in data set [6] (IC50(PBMC)/IC50(B16-F10)). Moreover, the values for the Selectivity index in data set [7] (IC50(MRC5)/IC50(HSC-3)) and in data set [7] (IC50(PBMC)/IC50(HSC-3)) were 0.5 and 4.5, respectively.
